Paper PMC3662782
No constants are given. Whether binding was seen depends on the method and setting.

Protein sequences, listed by entry. Tags and fused reporters are not part of them.
UniProt P0A6X3: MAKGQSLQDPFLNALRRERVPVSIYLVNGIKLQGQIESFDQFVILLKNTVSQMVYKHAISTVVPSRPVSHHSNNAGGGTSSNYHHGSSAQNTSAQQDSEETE
UniProt Q9HUM0: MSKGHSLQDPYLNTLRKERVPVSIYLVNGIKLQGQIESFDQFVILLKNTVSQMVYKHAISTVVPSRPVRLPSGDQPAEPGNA

Experiments:
[1] = biological target: His-Crc (Pseudomonas aeruginosa catabolite repression control protein Crc, N-terminal His6 tag, from plasmid pETM14lic-His6Crc) (Pseudomonas aeruginosa PAO1) (UniProt Q51380); test: co-purification by Ni-affinity chromatography, then SEC; His-Crc held on Ni resin from E. coli Rosetta (DE3) lysate (50 mM NaH2PO4 pH 8.0, 300 mM NaCl, 10 mM imidazole), then Superdex-75 SEC (50 mM NaH2PO4 pH 8.0, 150 mM NaCl); Hfq looked for by mass spectrometry and western blot; mock control strain without Crc
[2] = biological target: His-Crc (Pseudomonas aeruginosa Crc, His-tagged, from plasmid pME9670) (Pseudomonas aeruginosa) (UniProt Q51380); test: co-purification by Ni-affinity chromatography; His-Crc held on Ni resin from P. aeruginosa PAO1(pME9670) lysate, one-step NAC; eluate on a Coomassie-stained SDS gel

Substance | binding [1] | binding [2]
Escherichia coli RNA chaperone Hfq (from UniProt P0A6X3 1-102) | no binding | –
Hfq protein of Pseudomonas aeruginosa (from UniProt Q9HUM0 1-82) | – | no binding
